# Measured values as given in publication PMC4726468.
# A negative result means that nothing was seen under these conditions. At least one verdict was read from the data and is not stated in words by the source. For some of these results: For at least one entry, the source does not settle the construct or the ends of the probe. For some of these results: Protein sequences can lack the tags named with them.
# Columns and labels:
# GmSOC1-6xHis = GmSOC1-6xHis (UniProt A0A2K7FY55); assay: EMSA; conditions: DIG Gel Shift Kit (Roche 3353591910), manufacturer's instructions; pH and temperature not stated; recombinant protein; protein details: 6xHis (pET-DEST42); label: digoxigenin
# Dt2-6xHis = target: T1, Dt2-6xHis (UniProt I1N4Q7); assay: EMSA; conditions: DIG Gel Shift Kit (Roche 3353591910), manufacturer's instructions; pH and temperature not stated; recombinant protein; protein details: 6xHis (pET-DEST42); label: digoxigenin
# T1 sequence (looked up, limits assumed): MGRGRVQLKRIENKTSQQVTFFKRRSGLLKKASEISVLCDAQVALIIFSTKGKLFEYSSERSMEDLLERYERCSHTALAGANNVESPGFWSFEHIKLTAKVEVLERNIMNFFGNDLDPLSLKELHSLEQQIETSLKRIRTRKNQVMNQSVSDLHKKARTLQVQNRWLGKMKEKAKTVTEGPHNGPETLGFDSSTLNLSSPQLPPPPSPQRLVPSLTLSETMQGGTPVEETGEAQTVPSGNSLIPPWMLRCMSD
Sequence,binding result (GmSOC1-6xHis),binding result (Dt2-6xHis)
AATATCCAAATTTAGAAATATG (double strand) [Dt1-CArG1],no binding,
CCACCACCAATTAGGGCTTTTTTA (double strand) [Dt1-CArG3],no binding,no binding
CTTATACCAAAATAAGCAACTAAC (double strand) [Dt1-CArG2],no binding,
GATGAGCCGAATTAAGAGACAA (double strand) [Dt1-CArG6],,no binding
TTTCTCCAACAAAAGAATGCAAAC (double strand) [Dt1-CArG4],no binding,no binding
